The assay has as its target T1, large tumor suppressor 1 (LATS1) kinase (mouse (endogenous in mouse liver macrophages)) (UniProt Q8BYR2).
T1 sequence: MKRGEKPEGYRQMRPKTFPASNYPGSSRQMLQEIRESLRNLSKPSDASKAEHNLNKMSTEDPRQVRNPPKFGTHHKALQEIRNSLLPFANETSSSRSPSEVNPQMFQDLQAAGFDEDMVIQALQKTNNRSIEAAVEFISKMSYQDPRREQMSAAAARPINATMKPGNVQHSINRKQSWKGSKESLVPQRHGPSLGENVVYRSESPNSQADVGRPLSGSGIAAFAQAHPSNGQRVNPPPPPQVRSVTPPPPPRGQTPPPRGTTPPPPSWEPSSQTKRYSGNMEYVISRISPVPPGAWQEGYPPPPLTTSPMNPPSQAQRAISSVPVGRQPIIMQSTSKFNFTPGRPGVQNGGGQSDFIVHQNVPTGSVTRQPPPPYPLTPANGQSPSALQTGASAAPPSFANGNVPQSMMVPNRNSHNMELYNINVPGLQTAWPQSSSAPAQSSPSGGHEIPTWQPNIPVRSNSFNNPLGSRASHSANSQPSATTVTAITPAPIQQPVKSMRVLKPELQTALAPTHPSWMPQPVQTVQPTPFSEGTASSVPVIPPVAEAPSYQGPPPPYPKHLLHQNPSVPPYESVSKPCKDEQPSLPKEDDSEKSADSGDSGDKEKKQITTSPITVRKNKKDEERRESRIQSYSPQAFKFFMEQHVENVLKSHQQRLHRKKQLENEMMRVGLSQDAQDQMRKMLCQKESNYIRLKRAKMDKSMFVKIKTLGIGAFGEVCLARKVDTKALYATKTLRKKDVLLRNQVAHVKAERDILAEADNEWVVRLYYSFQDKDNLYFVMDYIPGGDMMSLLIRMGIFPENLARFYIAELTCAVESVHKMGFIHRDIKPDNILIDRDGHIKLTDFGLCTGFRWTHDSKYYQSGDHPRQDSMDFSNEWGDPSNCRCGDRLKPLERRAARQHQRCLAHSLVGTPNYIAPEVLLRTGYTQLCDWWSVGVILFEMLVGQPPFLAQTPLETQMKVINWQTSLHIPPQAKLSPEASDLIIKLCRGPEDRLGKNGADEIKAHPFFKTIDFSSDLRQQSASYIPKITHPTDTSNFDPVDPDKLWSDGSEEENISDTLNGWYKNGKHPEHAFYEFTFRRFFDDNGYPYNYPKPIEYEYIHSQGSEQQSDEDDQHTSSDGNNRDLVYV
The experiment in a line: co-IP; immunoprecipitation from liver macrophages of WT mice, with or without 0.2 mM PA and 0.4 mM OA for 24 h; immunoblot; precipitating antibody not stated. Background: Immunoblotting shows a protein as a band on a membrane.

Protein sequences, listed by entry. Tags and fused reporters are not part of them.
UniProt Q9QXD8: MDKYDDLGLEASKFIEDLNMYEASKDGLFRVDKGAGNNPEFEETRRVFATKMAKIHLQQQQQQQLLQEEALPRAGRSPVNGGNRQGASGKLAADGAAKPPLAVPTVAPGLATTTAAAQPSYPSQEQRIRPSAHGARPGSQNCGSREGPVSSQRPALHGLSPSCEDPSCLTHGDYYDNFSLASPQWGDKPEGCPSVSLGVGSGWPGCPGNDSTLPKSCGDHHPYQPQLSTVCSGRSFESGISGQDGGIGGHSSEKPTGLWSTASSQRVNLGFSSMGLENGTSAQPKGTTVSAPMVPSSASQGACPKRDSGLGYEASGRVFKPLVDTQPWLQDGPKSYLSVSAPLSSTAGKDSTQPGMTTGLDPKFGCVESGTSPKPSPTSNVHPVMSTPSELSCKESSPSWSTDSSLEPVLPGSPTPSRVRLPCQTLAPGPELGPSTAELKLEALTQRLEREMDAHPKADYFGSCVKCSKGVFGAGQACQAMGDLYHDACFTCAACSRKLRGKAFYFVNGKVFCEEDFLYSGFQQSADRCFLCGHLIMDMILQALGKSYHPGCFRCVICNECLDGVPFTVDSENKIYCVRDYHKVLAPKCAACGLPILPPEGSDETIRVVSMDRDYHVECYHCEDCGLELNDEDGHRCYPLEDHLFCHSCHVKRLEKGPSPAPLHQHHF

Results are given in words; binding and its absence hold for the method and conditions named. In cells and extracts the contact can be indirect. Some entries that bind do so weakly or less than the wild type.

As to “LIM domain-containing protein 1 (LIMD1) (from UniProt Q9QXD8 1-668)”, the binding entry is “binds”.
